The structures appear in SMILES notation. The list shows a part of the results.

The record followed here is article PMC12040169 (PLOS Biology, 2025).

This assay relates to T1, CTL2-GFP (C. trachomatis L2/434/Bu, GFP-expressing).
T1 construct: L2/434/Bu, GFP-expressing
Also on record: species or system HeLa; Intracellular C. trachomatis growth in HeLa cells, bulk GFP fluorescence relative to DMSO. To be noted: bulk GFP, single well; 28.5 h, 10 µM; inhibitor.
Consider `CCN1CCC(NC(=O)CSc2nc3ccccc3n2CC(C)C)CC1` [CBK304995], for which the “% of control remaining” value was 146.602%.

Consider `CCc1nc2ccc(C(=O)N3CCN(C)CC3)cn2c1N(C)Cc1ccc(NC(C)=O)cc1` [CBK145603], for which the “% of control remaining” value is on record as 108.506%.

For `O=c1c2ccccc2nc2c3ccccc3c(NCc3ccccn3)nn12` [CBK265964], the “% of control remaining” value was 100%.

Regarding `c1ccc2c(c1)nc(-c1cscn1)n2Cc1ccc(-c2nnn[nH]2)cc1` [CBK266979], the “% of control remaining” value turned out to be 155.329%.

Regarding `O=C(Cn1c(C(F)(F)F)nc2ccccc21)NCCN1CCCC1` [CBK267150], the “% of control remaining” value was 117.043%.

With `Cc1ccc(S(=O)(=O)N(C)CC(=O)NCc2nc(-c3ccccc3)no2)cc1` [CBK268524], the “% of control remaining” value was 152.616%.

Regarding `COc1ccc(C(=O)COC(=O)c2cc(-c3ccc(Cl)cc3)nc3ccc(C)cc23)cc1[N+](=O)[O-]` [CBK264072], the “% of control remaining” value is on record as 130.205%.

As to `Cc1cc(S(=O)(=O)NCC(C)n2nc(C)c(C)c2C)ccc1F` (stereo not drawn) [CBK282010], the “% of control remaining” value is 139.899%.

Regarding `CC1CN(Cc2cccc(CNc3ncccc3C#N)c2)CCO1` (stereo not drawn) [CBK303994], the “% of control remaining” value is reported as 109.525%.

As to `CC(C)c1cc(C(=O)N2C[C@H](C)N(Cc3ccco3)C[C@@H]2C)on1` [CBK283053], the “% of control remaining” value is recorded as 105.349%.

Consider `CC(C)Oc1ncc(C(=O)NCCCC(=O)O)cc1Cl` [CBK305192], for which the “% of control remaining” value stood at 141.267%.

As to `O=C(CN1CCN(CCN2C(=O)c3cccc4cccc(c34)C2=O)CC1)c1ccc(Cl)cc1` [CBK265363], the “% of control remaining” value was found to be 100%.

Consider `c1ccc2c(c1)nc1n2CCN1CCN1CCCCC1` [CBK278283C], for which the “% of control remaining” value is 108.616%.

Take `CN(Cc1cnn(C)c1)c1nccc(N2CCN[C@H]3CS(=O)(=O)C[C@H]32)n1` [CBK306964]: the “% of control remaining” value is 146.502%.

With `COc1cccc2cc(C(=O)NCCc3ccc(O)cc3)oc12` [CBK149802], the “% of control remaining” value was 109.959%.

Turning to `O=S(=O)(NCC1COc2ccccc2O1)c1cc(Cl)sc1Cl` (stereo not drawn) [CBK057394], the “% of control remaining” value came out at 121.864%.

`N#Cc1ccc(CN2C(=O)c3ccccc3C2=O)cc1` [CBK029022]: the “% of control remaining” value was 114.325%.

Take `CCCn1cnc2cc(NC(=O)c3ccc(=O)n(CC(=O)N(C)c4ccccc4)c3)ccc21` [CBK286026]: the “% of control remaining” value is 87.6739%.

As to `NC(=O)CC1C(=O)N(c2ccc(F)cc2)C(=S)N1NC(=O)CCc1ccccc1` (stereo not drawn) [CBK268978A], the “% of control remaining” value is 135.285%.

For `Cc1noc(CN2CCNC(=O)C2c2ccccc2C(F)(F)F)n1` (stereo not drawn) [CBK306405], the “% of control remaining” value is recorded as 123.074%.

Turning to `CC(C)N(C(=O)Cn1nc(-c2cccs2)ccc1=O)C(C)C` [CBK282638], the “% of control remaining” value was 125.499%.

On to `O=C(CNS(=O)(=O)c1ccc(Br)cc1)N1CCN(Cc2ccc3c(c2)OCO3)CC1` [CBK074358], for which the “% of control remaining” value was determined as 108.993%.

As for `Cc1cc(C(=O)NC2CCCC2)n[nH]1` [CBK200240], the “% of control remaining” value came to 105.717%.

For `Nc1ncc(-c2ccc(C(=O)N3CCOCC3)cc2)nc1-c1ccc(C[C@H](N)C(=O)O)cc1` [CBK126364], the “% of control remaining” value worked out at 124.429%.

As to `Cc1nnc2n1CCN(C(=O)CC1OCCc3sccc31)C2` (stereo not drawn) [CBK304956], the “% of control remaining” value is listed as 130.441%.

Consider `CC(=O)c1ccccc1-c1ccc(C(=O)N2CCN(C)CC2)c(NCC2CC2)n1` [CBK076613], for which the “% of control remaining” value worked out at 157.177%.

Turning to `O=C(c1cc2c(s1)CCCC2)N1CCCCC1c1nnc(-c2nccc3ccccc23)o1` (stereo not drawn) [CBK285577], the “% of control remaining” value is listed as 121.917%.

With `O=C(OCc1ccccc1)N1CCC2(CC1)CN(c1ccc(C(F)(F)F)cn1)CCO2` [CBK161116T], the “% of control remaining” value was determined as 88.947%.

As for `Cc1ccccc1C(NC(=O)C1CCN(C(=O)CCC2CCCC2)CC1)c1ccccn1` (stereo not drawn) [CBK059677], the “% of control remaining” value is reported as 102.887%.

Consider `S=C(Nc1ccc(Nc2ccccc2)cc1)N1CCN(Cc2ccc3c(c2)OCO3)CC1` [CBK266141], for which the “% of control remaining” value is 137.95%.

For `O=C(Cc1cccc(F)c1)N1C2CCC1CC(O)(c1ccco1)C2` (stereo not drawn) [CBK284138], the “% of control remaining” value came to 120.349%.

As for `COCCOCC(=O)N1CC(=O)N(c2ccccc2C#N)CC1C` (stereo not drawn) [CBK307258], the “% of control remaining” value is 128.648%.

With `CCN(CC(=O)NCc1ccc(C)cc1)S(=O)(=O)c1ccc(C)cc1` [CBK267511], the “% of control remaining” value is 105.345%.

Consider `O=C(c1cccnc1)C1CCN(C(=O)Cc2ccc(F)cc2)CC1` [CBK283515], for which the “% of control remaining” value was found to be 131.149%.

For the molecule `CCCc1nc(-c2ccc3c(c2)CCCN3S(C)(=O)=O)cs1` [CBK306253], the “% of control remaining” value worked out at 115.215%.

As for `CCC1CCCCN1C(=O)c1cc(Br)c(Br)s1` (stereo not drawn) [CBK089360], the “% of control remaining” value came out at 65.7661%.

Regarding `S=C(NCCc1ccccc1)NCCn1cc(Cl)cn1` [CBK266912], the “% of control remaining” value came out at 105.475%.

As for `Cc1c(Cl)cccc1NC(=S)NNC(=O)C(C)Oc1ccc(F)cc1F` (stereo not drawn) [CBK266823], the “% of control remaining” value worked out at 123.804%.

For the molecule `CCOc1ccc(CSC2=NCCN2)cc1Cl` [CBK027449C], the “% of control remaining” value came out at 100%.

For `CN(CCOC(=O)c1cccnc1)C(C)(C)C` [CBK027543C], the “% of control remaining” value is reported as 151.998%.

Consider `CC1(C)CCN(Cc2ccccc2)C1CC#N` (stereo not drawn) [CBK006978C], for which the “% of control remaining” value was 98.5116%.

Take `Cc1ccc(OCCn2ccnc(N3CCNCC3)c2=O)c([N+](=O)[O-])n1` [CBK001381C]: the “% of control remaining” value was found to be 128.176%.

On to `CC(Cn1cncn1)NS(=O)(=O)c1cccc(C(=O)N2CCCCC2)c1` (stereo not drawn) [CBK306594], for which the “% of control remaining” value is on record as 98.8053%.

For `CC(C)Nc1nc2ccccc2nc1SCCc1ccncc1` [CBK103670], the “% of control remaining” value turned out to be 96.4517%.

On to `COc1nccnc1N1CCN(CC(=O)Nc2c(C)cccc2C)CC1` [CBK084220], for which the “% of control remaining” value is recorded as 99.4319%.

Take `COc1ccc(/C=N/NC(=O)c2cc[nH]n2)cc1CSc1nc2ccccc2s1` [CBK263734]: the “% of control remaining” value was 116.172%.

Take `O=C(Nc1nnc(-c2ccco2)o1)C(c1ccccc1)c1ccccc1` [CBK287424]: the “% of control remaining” value came to 137.764%.

With `Cn1c(SCc2cc(-c3ccc(Cl)cc3)no2)nnc1-c1ccco1` [CBK295193], the “% of control remaining” value worked out at 155.521%.

Consider `Cc1ccc(C(=O)N2CCN(c3ccc(NC(=O)c4ccc(-c5cccc([N+](=O)[O-])c5)o4)cc3)CC2)cc1` [CBK266355], for which the “% of control remaining” value worked out at 108.219%.

As for `CCCc1[nH]nc(O)c1Cc1ccc(F)cc1F` [CBK075015], the “% of control remaining” value was found to be 109.36%.

`NC(=O)C1(N2CCCCC2)CCN(C(=O)CSc2nnc(-c3ccccc3)n2C2CCCCC2)CC1` [CBK266219]: the “% of control remaining” value was 122.13%.

Turning to `CC(C)(C)c1ccc(N(C2CCNCC2)S(=O)(=O)c2ccc(Cl)cc2Cl)cc1` [CBK165067T], the “% of control remaining” value was 47.4504%.

As to `O=C(c1cn2cc(-c3cccs3)n(CC3CC3)c(=O)c2n1)N1CC(O)C1` [CBK306979], the “% of control remaining” value was 130.575%.

Regarding `CC1NCCc2c1sc1ccccc21` (stereo not drawn) [CBK026032C], the “% of control remaining” value is listed as 107.735%.

With `CC(Sc1nc2ccccc2[nH]1)C(=O)Nc1ccc(S(N)(=O)=O)cc1` (stereo not drawn) [CBK266128], the “% of control remaining” value came out at 115.177%.

As to `O=C(Cc1ccccc1[N+](=O)[O-])NCCCN1CCOCC1` [CBK265520], the “% of control remaining” value is 120.147%.

As for `Oc1ccccc1-c1n[nH]c(=S)n1-c1ccc(OC(F)(F)F)cc1` [CBK288384], the “% of control remaining” value is given as 178.914%.

For `O=C(NCCn1nc(-c2cccs2)ccc1=O)C1CCCCC1` [CBK283837], the “% of control remaining” value came to 128.292%.

In the case of `NC(=O)CSc1nc(NCc2ccccc2)nc(N2CCOCC2)n1` [CBK268923], the “% of control remaining” value was 111.943%.

In the case of `O=C(CN1C2CCC1CC(O)(c1ccccc1F)C2)NCC1CC1` (stereo not drawn) [CBK281942], the “% of control remaining” value was 123.149%.

In the case of `O=C(N/N=C/c1ccc(O)cc1O)c1[nH]c2ccc([N+](=O)[O-])cc2c1-c1ccccc1` [CBK263328], the “% of control remaining” value is listed as 11.9907%.

Take `COCCn1c(CO)nnc1[C@H]1C[C@@H](NC(=O)c2ccc(C)s2)C1` [CBK307063]: the “% of control remaining” value is reported as 167.147%.

As for `Cn1ccnc1C1CCN(C(=O)NCc2cccc(F)c2)CC1` [CBK304606], the “% of control remaining” value is 113.396%.

Take `CCc1nnc(Sc2ccc(C=O)cc2[N+](=O)[O-])[nH]1` [CBK268876]: the “% of control remaining” value is 116.175%.

As for `CCOc1ccc(CN2CCN(C(=O)c3cccc(C#N)c3)CC2)cc1` [CBK304527], the “% of control remaining” value came to 114.516%.

With `Cc1ccc(Cn2c(=N)n(CC(=O)c3ccc(Br)cc3)c3ccccc32)cc1` [CBK262979B], the “% of control remaining” value worked out at 100%.

`COc1cc2c(cc1OC)CN(C(=O)C1CCN(C)CC1)CC2` [CBK122744]: the “% of control remaining” value amounted to 125.198%.

For `Cc1[nH]c2ccccc2c1/C=N/c1cccc2c(/N=C/c3c(C)[nH]c4ccccc34)cccc12` [CBK261227], the “% of control remaining” value is 100.293%.

On to `COC(=O)c1sc2ncccc2c1NS(=O)(=O)c1cc(Br)ccc1OC` [CBK049971], for which the “% of control remaining” value was 132.374%.

For `O=C(CSc1ncn(-c2ccccc2)n1)c1ccc(Br)cc1` [CBK027014], the “% of control remaining” value is 108.311%.

Consider `O=C(O)c1ccc(Cl)c2c1C1C=CCC1C(c1ccccn1)N2` (stereo not drawn) [CBK287087], for which the “% of control remaining” value is given as 146.133%.

As to `Cc1ccc(Oc2c([N+](=O)[O-])ncn2C)c(Br)c1` [CBK002819], the “% of control remaining” value was 101.87%.

As for `Cc1cc2cc(C(F)(F)F)nc-2n(CC(=O)NC2CC2)c1` [CBK282888], the “% of control remaining” value is recorded as 87.6687%.

With `O=C(c1ccc2c(c1)CCCO2)N(Cc1ccccn1)CC1CCCO1` (stereo not drawn) [CBK307488], the “% of control remaining” value was found to be 173.781%.

Take `CCC(C)Oc1ccccc1OCCN1C(=O)NC(C)(C)C1=O` (stereo not drawn) [CBK267362]: the “% of control remaining” value stood at 164.948%.

`CN1CCCCC1CC(=O)Nc1ccc2ncn(C)c2c1` (stereo not drawn) [CBK281747]: the “% of control remaining” value was 144.899%.

Turning to `Nc1ncc(-c2cccc(OC(F)(F)F)c2)nc1-c1ccc(C(=O)N2CCOCC2)cc1` [CBK064091], the “% of control remaining” value turned out to be 122.848%.

Regarding `CN1CCN(c2ccnc3cc(Cl)ccc23)CC1` [CBK066867C], the “% of control remaining” value is recorded as 107.675%.
